Results taken from PMC8495400.
These are yes or no findings as the source states them, for the method shown. In cells and extracts the contact can be indirect. Some binding calls cover weakened binding; strength is not graded here.

By UniProt entry, the sequences of proteins in these tests, tags left out. Residues count along the entry.
UniProt Q16665: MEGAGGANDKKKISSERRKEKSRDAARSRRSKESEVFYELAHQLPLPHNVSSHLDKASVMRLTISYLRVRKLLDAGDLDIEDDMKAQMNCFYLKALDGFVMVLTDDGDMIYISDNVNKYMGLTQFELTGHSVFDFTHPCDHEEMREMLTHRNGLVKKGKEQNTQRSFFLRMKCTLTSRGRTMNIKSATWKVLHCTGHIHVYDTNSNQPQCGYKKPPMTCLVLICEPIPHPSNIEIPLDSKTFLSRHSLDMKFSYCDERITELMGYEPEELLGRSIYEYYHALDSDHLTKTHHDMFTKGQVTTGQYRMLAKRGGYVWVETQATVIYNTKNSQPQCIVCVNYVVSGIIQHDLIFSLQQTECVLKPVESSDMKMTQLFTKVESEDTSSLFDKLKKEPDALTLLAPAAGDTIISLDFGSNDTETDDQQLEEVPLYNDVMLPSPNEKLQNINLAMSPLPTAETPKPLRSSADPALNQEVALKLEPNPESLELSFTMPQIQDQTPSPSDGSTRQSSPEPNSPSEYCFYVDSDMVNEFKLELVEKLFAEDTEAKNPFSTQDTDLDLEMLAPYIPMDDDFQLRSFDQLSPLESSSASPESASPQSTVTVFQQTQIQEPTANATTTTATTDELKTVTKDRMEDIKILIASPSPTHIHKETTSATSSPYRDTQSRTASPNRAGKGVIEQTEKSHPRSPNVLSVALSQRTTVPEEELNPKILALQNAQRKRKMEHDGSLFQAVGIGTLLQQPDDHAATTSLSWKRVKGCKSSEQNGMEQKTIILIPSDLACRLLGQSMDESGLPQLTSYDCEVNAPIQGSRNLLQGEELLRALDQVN
UniProt P22415: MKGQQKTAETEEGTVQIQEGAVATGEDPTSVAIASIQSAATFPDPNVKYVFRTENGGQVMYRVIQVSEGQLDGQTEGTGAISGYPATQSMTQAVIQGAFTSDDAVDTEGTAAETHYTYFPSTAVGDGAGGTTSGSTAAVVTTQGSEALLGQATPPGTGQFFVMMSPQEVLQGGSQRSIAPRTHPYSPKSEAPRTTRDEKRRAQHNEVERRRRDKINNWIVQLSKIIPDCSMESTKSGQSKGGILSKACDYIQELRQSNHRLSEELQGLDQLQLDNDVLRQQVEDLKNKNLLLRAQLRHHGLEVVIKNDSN
UniProt Q13443, residues 29-819: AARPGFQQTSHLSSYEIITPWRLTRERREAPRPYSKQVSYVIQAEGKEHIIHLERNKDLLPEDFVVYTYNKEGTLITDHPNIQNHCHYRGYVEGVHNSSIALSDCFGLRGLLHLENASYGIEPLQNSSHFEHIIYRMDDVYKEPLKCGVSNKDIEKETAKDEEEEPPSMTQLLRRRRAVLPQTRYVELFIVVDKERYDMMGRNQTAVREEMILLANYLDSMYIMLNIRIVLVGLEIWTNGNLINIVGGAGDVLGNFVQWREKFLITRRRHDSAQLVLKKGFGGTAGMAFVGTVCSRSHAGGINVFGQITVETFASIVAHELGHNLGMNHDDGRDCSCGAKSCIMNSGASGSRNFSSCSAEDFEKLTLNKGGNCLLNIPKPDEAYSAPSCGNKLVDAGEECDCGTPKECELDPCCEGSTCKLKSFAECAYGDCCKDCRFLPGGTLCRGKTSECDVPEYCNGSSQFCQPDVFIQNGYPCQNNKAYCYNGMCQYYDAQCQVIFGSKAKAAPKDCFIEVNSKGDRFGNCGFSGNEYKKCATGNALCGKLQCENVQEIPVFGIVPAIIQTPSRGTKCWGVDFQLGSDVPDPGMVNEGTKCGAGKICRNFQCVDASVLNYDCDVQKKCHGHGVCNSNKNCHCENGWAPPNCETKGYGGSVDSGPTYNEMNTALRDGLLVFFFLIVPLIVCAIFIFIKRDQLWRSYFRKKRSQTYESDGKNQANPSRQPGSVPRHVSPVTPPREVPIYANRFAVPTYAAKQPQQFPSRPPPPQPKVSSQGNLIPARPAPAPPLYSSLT

How the values were obtained:
Assay in all cases: proximity ligation; Duolink In situ Red Starter Kit on fixed KYSE170 cells, normoxia and hypoxia; two primary antibodies (ADAM9 and the transcription factor); signals counted in the whole cell and the nucleus
[1] = target: TP53 (human (endogenous in KYSE170)) (UniProt P04637)
[2] = target: hypoxia inducible factor 1 subunit alpha (human (endogenous in KYSE170)) (UniProt Q16665)
[3] = target: upstream transcription factor 1 (human (endogenous in KYSE170)) (UniProt P22415)

Measured: binding

a disintegrin and metalloprotease 9 (from UniProt Q13443 29-819)
binds: all assays above
